# Assay: general procedure: solution-phase peptide synthesis; Boc-Tyr-OSu (active ester), triethylamine in DMF
# Details: late stage modification step
substance,measurement,value
tert-Butyloxycarbonyl-L-tyrosyl-peptidoglycan monomer,step yield,46%

# — patent US5290576A (Pliva Farmaceutska, priority 1990, dated 1994)
